Assay results from PubChem BioAssay AID2685 (National Center for Advancing Translational Sciences (NCATS), 2010).
The list shows a part of the results. Shown are side measurements of this screen, not its main read-out; they come without a call. The list favours compounds with an active or inconclusive main result. Potencies come from curve fits of mixed quality, noted in brackets.

Assay: qHTS Assay for Lipid Storage Modulators in Drosophila S3 Cells;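 as to cell number change: cells counted by Cell Tracker Red CMTPX staining in the red channel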
Settings: BODIPY lipid droplet fluorescence, 18-24 h; for cell number change: measured here: cell count max response, cells fed with added oleic acid
How it was run: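 Laser-scanning cytometry quantifies lipid droplet accumulation (500–530 nm total intensity; droplet/cell object ratio) in oleic acid-fed (400 uM added) Drosophila S3 cells treated with a concentration series. 20 uM Triacsin C defined 100% inhibition.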

[1] = measured here: cell number channel AC50, cells fed with added oleic acid
[2] = measured here: lipid fluorescence (Fed channel) AC50, cells fed with added oleic acid

Structure (SMILES)	cell number change [%]	AC50 [1]	AC50 [2]
O=C(NCCCn1ccnc1)c1ccc(S(=O)(=O)Nc2ccccc2)cc1	23.7	0.00411 µM [rising, full curve, poor fit]	–
CSc1ncccc1C(=O)NC1CCCCCCC1	18.2	–	23.1 µM [rising, single point]
COC(=O)c1ccc2c(=O)n(CC3CCCO3)c(SCC(=O)Nc3ccccc3OC)nc2c1 (stereo not given)	3.55	–	4.11 µM [falling, single point]
O=C(Nc1ccc2c(c1)OCCO2)c1cnn(-c2ccccc2)n1	-7.27	–	2.06 µM [rising, partial curve]
CCC(=O)c1ccc(OCC(=O)O)c(OC)c1	4.14	–	–
NC(=O)C1CCN(C(=O)/C(=C/c2ccco2)NC(=O)c2ccccc2)CC1	-8.57	–	–
O=C1c2ccccc2C(=O)N1CCc1ccccn1	–	0.291 µM [rising, single point]	–
Cc1ccc(-n2ncc3c2CC(C)(C)CC3NC(=O)c2c(C)noc2C)cc1 (stereo not given)	–	6.51 µM [rising, single point]	–
COc1ccccc1N(CC(O)COc1ccccc1)S(=O)(=O)c1ccccc1 (stereo not given)	15.9	–	23.1 µM [rising, single point]
CC(O)CNCCCOc1cccc(C(F)(F)F)c1 (stereo not given)	-48	16.4 µM [falling, single point]	16.4 µM [falling, single point]
COc1ccc(NS(=O)(=O)c2cccc(NC(=O)c3ccc(S(=O)(=O)N4CCCCCC4)cc3)c2)cc1	-49.1	25.9 µM [falling, single point]	2.59 µM [falling, full curve]
CCOc1ccc(-n2c(=O)c3sccc3n(CC(=O)NCC3CCCO3)c2=O)cc1 (stereo not given)	-2.86	–	–
COc1ccc(C(C)(C)C)cc1NC(=O)Nc1ccc2c(c1)OCO2	-16.8	–	23.1 µM [falling, single point]
COc1ccc(C(=O)Nc2cc(C)nn2-c2cccc(F)c2)cc1	10.5	–	–
COC(=O)[C@]1(CC(C)C)N[C@H](c2ccc(-c3ccc(Cl)c(Cl)c3)cc2)[C@@H]2C(=O)N(C)C(=O)[C@@H]21	-52.7	7.31 µM [falling, partial curve]	–
CCOC(=O)N1CCN(C(=O)CN(Cc2ccc(Cl)cc2)S(=O)(=O)c2ccc(C)cc2)CC1	115	14.6 µM [rising, partial curve]	–
Nc1nc(SCC(=O)N2CCCc3ccccc32)[nH]c(=O)c1-c1ccccc1	11.5	–	16.4 µM [rising, partial curve]
O=c1cc(C(F)(F)F)nc(-n2[nH]c3c(c2=O)CCCC3)[nH]1	1.07	–	18.4 µM [falling, partial curve]
O=C(CSc1ccc2nnc(-c3cccnc3)n2n1)Nc1ccccc1	–	–	1.64 µM [falling, partial curve]
c1ccc2c(c1)Oc1ccccc1S2	-14.9	–	0.82 µM [rising, full curve, poor fit]

Structure (SMILES)	cell number change [%]	AC50 [1]	AC50 [2]
CCOc1ccc(S(=O)(=O)NCc2ccc3c(c2)OCO3)cc1C(=O)O	21.5	–	16.4 µM [rising, partial curve]
COc1ccccc1-c1noc2ncnc(Nc3cccc(C)c3C)c12	-9.71	–	29.1 µM [falling, single point]
COCCNC(=S)NC(=O)c1ccc(C(C)(C)C)cc1	-18.5	4.11 µM [falling, single point]	5.17 µM [falling, full curve]
CSCCC(NC(=O)c1ccc(Cl)cc1Cl)C(=O)OCC(N)=O (stereo not given)	-20.2	–	18.4 µM [falling, partial curve]
CN1CCC2(CC1)NC(=O)NC2=O	13.3	–	4.11 µM [rising, full curve]
CCC(=O)NC(c1cc(Cl)c2ccccc2c1O)C(C)C (stereo not given)	-34.6	25.9 µM [falling, single point]	–
Cc1ccc(C(=O)Nc2ccccc2C(=O)O)cc1S(=O)(=O)Nc1ccccc1	23.2	–	29.1 µM [falling, single point]
N#CNC1=NCN(Cc2ccccc2)CN1	-15.3	–	–
O=C(CSCC(=O)N1CCN(c2ccccc2)CC1)Nc1nc(-c2ccc(Cl)s2)cs1	1.72	–	29.1 µM [falling, single point]
COc1ccc(-n2ncc3c(N4CCC(C)CC4)ncnc32)cc1	1.8	–	32.6 µM [falling, single point]
C(=C\c1ccccc1)/C=N/Nc1nncc(-c2ccccc2)n1	2.8	–	0.291 µM [rising, full curve]
Cc1sc2nc(CN3CCN(c4ccc(O)cc4)CC3)[nH]c(=O)c2c1C	14	–	4.61 µM [rising, full curve, poor fit]
COc1cc(O)oc1C=Nc1ccc(Oc2ccccc2)cc1	-12	–	–
Cc1ccc(/C=C2/Sc3ccc(C(=O)NCc4ccccn4)cc3NC2=O)cc1	14.2	–	0.13 µM [rising, full curve, poor fit]
O=C(Nc1cc(S(=O)(=O)N2CCOCC2)ccc1N1CCCC1)C1CC1	19.8	–	5.8 µM [falling, single point]
Cc1cccc(C(=O)OCN2C(=O)c3ccccc3C2=O)c1[N+](=O)[O-]	33.7	–	–
COc1ccc(-c2noc(CSc3ccc(C)cc3)n2)cc1	15.4	0.731 µM [falling, full curve]	1.46 µM [falling, partial curve]
O=S(=O)(c1ccc2ncn(O)c2c1)N1CCOCC1	46.9	0.92 µM [rising, full curve, poor fit]	23.1 µM [rising, single point]
CCC/C(O)=C1\C(=O)CC(c2ccccc2)CC1=NC (stereo not given)	-1.98	–	–
Cc1ccc(NC(=O)CSCc2n[nH]c(=O)[nH]2)c(Br)c1	-10.5	–	2.59 µM [falling, single point]

Structure (SMILES)	cell number change [%]	AC50 [1]	AC50 [2]
O=C(Nc1nc2ccc(F)cc2s1)c1cccs1	–	–	16.4 µM [rising, partial curve]
CCOC(=O)c1c(-c2cccs2)csc1N	-4.44	–	2.59 µM [rising, partial curve]
O=C1CC(SCCO)C(=O)N1c1ccccc1 (stereo not given)	-19.8	0.231 µM [falling, full curve, poor fit]	0.731 µM [falling, full curve]
CCc1ccc(Nc2ncc3c(n2)CC(c2ccco2)CC3=O)cc1 (stereo not given)	-45.6	25.9 µM [falling, partial curve, poor fit]	29.1 µM [falling, single point]
Cc1cc(C)c(C(=O)N2CCCC(Nc3ccc(C)c(C)c3)C2)o1 (stereo not given)	-26	–	6.51 µM [falling, single point]
CN(C(=O)COC(=O)/C=C/c1ccc2ccccc2n1)c1c(N)n(Cc2ccccc2)c(=O)[nH]c1=O	-7.46	–	11.6 µM [falling, partial curve, poor fit]
C=CCc1c(NCCO)nc(C)[nH]c1=O	30.1	29.1 µM [rising, single point]	18.4 µM [rising, single point]
Cc1cc(C)n(CC(=O)NNC(=O)CCNC(=O)c2ccccc2Cl)n1	-33.1	29.1 µM [falling, single point]	18.4 µM [falling, single point]
COCC(C)NCC(=O)NC(C)CCc1ccccc1 (stereo not given)	-18	–	0.517 µM [falling, single point]
Cc1cc(NC(=O)CCC(=O)N(CC(=O)NC2CCCC2)c2ccc(C)c(F)c2)no1	26.6	–	0.92 µM [falling, full curve]
CCN(C(=O)c1cc(Cl)ccc1Cl)C1CCS(=O)(=O)C1 (stereo not given)	-36.8	2.59 µM [falling, full curve, poor fit]	5.8 µM [falling, partial curve]
CN(C)/C=C/c1c(C#N)c(=O)ncn1Cc1ccccc1	-210	29.1 µM [falling, single point]	0.651 µM [falling, single point]
COc1c(F)c(F)c(C(=O)O)c(Nc2ccc(C)cc2C)c1F	-66.4	20.6 µM [falling, single point]	23.1 µM [falling, single point]
c1ccc(-c2nnc(SCc3nnc(-c4cccs4)o3)o2)cc1	–	2.31 µM [rising, partial curve, poor fit]	29.1 µM [rising, partial curve]
N#Cc1cc2ccccc2nc1SCc1cccnc1	-38.6	32.6 µM [falling, single point]	–
CC(C)C(=O)NNC(=O)c1c(O)c2ccccc2[nH]c1=O	-10.1	–	0.231 µM [falling, full curve, poor fit]
COc1ccc(N2CC(C(=O)Nc3nc4ccc(S(C)(=O)=O)cc4s3)CC2=O)cc1 (stereo not given)	-28.9	0.731 µM [falling, full curve, poor fit]	0.631 µM [falling, full curve]
COc1ccc(C(=O)NCC(=O)N/N=C/C(C)=C/c2ccccc2)cc1OC	-2.72	–	23.1 µM [rising, single point]
Cn1c(=O)c2c(nc(NCc3ccco3)n2C/C=C/c2ccccc2)n(C)c1=O	-38.3	10.3 µM [falling, partial curve]	14.6 µM [falling, partial curve]

4 entries drawn at random from those above, as already listed:
Structure (SMILES)	cell number change [%]	AC50 [1]	AC50 [2]
CCN(C(=O)c1cc(Cl)ccc1Cl)C1CCS(=O)(=O)C1 (stereo not given)	-36.8	2.59 µM [falling, full curve, poor fit]	5.8 µM [falling, partial curve]
CN(C(=O)COC(=O)/C=C/c1ccc2ccccc2n1)c1c(N)n(Cc2ccccc2)c(=O)[nH]c1=O	-7.46	–	11.6 µM [falling, partial curve, poor fit]
COc1c(F)c(F)c(C(=O)O)c(Nc2ccc(C)cc2C)c1F	-66.4	20.6 µM [falling, single point]	23.1 µM [falling, single point]
O=C(Nc1nc2ccc(F)cc2s1)c1cccs1	–	–	16.4 µM [rising, partial curve]
